Literature values, collected in patent US11458091B2, “Compositions and methods for the treatment of opioid overdose” (Opiant Pharmaceuticals, Inc., priority 2016, dated 2022).
At least one read-out could not be matched to a standard name with certainty.

Details: after SC injection; cited from earlier work

C=C1CC[C@@]2(O)[C@H]3Cc4ccc(O)c5c4[C@@]2(CCN3CC2CC2)[C@H]1O5 [Nalmefene, 17-cyclopropylmethyl-4,5α-epoxy-6-methylenemorphinan-3,14-diol]
time at which maximum plasma concentration (Cmax) occurs: 1.5 ± 1.2 h
